These are yes or no findings as the source states them, for the method shown. Binding seen in cells or lysates may run through a third protein. Some results given as binding are weak or reduced against the parent protein; the word gives no strength.
Target: Zinc and ring finger 3 (ZNRF3), HA-tagged, doxycycline-inducible in H1703 cells (human) (UniProt Q9ULT6)
Test: co-IP; anti-HA on Protein A/G Plus Agarose from precleared lysates of doxycycline-induced TetOn ZNRF3-HA H1703 cells, 4 °C for 4 hr, washed four times with Triton lysis buffer (1 % Triton X-100, 150 mM NaCl, pH 7.5); blot for endogenous MET and SRC; siRNA knockdown of MET or SRC; also a time course of 100 ng/ml HGF (binding increased, peak at 30 min)

By UniProt entry, the sequences of proteins in these tests, tags left out. Residues count along the entry.
UniProt Q9ULT6, residues 56-936: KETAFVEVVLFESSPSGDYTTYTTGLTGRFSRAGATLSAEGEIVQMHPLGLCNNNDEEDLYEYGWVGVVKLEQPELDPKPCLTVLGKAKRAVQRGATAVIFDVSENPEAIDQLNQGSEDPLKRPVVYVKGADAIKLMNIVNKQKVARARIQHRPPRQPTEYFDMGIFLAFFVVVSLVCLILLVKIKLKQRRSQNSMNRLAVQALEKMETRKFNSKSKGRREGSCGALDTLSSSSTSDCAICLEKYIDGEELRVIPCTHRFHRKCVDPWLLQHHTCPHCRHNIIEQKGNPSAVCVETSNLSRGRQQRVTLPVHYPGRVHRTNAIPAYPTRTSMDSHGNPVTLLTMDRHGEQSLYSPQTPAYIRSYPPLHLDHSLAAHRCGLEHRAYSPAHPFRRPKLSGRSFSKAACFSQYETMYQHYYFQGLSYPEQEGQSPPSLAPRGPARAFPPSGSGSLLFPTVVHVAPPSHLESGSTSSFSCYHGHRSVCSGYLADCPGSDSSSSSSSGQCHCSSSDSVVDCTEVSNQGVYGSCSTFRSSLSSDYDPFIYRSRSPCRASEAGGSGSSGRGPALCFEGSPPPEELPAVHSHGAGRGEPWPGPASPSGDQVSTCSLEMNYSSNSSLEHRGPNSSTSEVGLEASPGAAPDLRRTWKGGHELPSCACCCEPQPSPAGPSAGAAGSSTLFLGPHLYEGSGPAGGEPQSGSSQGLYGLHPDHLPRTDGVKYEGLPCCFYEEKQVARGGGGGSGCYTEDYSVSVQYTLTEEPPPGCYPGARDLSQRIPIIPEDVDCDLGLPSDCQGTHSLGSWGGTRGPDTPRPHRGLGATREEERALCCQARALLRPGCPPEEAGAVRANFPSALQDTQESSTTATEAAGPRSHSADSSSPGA
UniProt P08581, residues 25-1390: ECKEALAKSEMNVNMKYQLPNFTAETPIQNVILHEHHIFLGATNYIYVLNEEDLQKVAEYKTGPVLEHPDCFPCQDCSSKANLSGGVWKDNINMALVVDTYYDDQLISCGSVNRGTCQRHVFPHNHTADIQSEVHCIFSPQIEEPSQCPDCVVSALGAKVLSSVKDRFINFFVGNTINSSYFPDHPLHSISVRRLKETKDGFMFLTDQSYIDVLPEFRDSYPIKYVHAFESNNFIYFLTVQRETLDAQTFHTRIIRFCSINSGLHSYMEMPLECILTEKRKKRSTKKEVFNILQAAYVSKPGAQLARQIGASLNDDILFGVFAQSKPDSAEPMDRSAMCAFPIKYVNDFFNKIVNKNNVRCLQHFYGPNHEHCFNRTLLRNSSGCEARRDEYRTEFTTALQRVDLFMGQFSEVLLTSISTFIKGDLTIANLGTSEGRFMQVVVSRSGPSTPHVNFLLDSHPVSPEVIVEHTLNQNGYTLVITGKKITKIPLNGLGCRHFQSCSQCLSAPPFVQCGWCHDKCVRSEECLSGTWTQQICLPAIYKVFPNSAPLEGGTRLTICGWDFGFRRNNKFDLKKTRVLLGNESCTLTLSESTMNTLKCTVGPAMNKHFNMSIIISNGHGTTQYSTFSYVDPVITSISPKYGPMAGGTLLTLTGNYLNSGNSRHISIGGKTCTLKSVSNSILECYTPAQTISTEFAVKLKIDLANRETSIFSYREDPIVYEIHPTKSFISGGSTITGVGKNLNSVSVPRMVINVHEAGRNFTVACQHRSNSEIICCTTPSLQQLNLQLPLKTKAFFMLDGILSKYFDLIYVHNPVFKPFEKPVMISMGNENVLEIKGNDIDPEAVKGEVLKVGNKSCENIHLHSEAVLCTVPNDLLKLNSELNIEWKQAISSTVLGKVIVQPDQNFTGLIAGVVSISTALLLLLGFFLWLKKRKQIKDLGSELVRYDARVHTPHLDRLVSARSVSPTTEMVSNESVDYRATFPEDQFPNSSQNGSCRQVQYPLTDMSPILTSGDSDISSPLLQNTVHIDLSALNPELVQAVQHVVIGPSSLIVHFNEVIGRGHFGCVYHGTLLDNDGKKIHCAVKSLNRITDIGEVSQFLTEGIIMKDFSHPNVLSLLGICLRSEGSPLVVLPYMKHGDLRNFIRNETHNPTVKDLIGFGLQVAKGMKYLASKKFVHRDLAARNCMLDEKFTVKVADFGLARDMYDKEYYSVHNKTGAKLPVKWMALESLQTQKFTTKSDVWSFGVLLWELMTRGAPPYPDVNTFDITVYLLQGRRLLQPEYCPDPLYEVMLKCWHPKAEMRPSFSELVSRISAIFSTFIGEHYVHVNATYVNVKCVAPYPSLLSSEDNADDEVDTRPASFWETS

With “MET (mesenchymal-epithelial transition factor / hepatocyte growth factor receptor), endogenous (from UniProt P08581-1 25-1390)” the binding was “binds”.
